Source: US6506889
Results are given in words; binding and its absence hold for the method and conditions named. Some results given as binding are weak or reduced against the parent protein; the word gives no strength. Where a sequence is shown, tags or fusion partners need not be part of it.

Chains of the proteins cited; added tags and fusions are not shown. Lines headed by an entry give the natural chain unless they say otherwise; changes in a name come on top.
UniProt P04386: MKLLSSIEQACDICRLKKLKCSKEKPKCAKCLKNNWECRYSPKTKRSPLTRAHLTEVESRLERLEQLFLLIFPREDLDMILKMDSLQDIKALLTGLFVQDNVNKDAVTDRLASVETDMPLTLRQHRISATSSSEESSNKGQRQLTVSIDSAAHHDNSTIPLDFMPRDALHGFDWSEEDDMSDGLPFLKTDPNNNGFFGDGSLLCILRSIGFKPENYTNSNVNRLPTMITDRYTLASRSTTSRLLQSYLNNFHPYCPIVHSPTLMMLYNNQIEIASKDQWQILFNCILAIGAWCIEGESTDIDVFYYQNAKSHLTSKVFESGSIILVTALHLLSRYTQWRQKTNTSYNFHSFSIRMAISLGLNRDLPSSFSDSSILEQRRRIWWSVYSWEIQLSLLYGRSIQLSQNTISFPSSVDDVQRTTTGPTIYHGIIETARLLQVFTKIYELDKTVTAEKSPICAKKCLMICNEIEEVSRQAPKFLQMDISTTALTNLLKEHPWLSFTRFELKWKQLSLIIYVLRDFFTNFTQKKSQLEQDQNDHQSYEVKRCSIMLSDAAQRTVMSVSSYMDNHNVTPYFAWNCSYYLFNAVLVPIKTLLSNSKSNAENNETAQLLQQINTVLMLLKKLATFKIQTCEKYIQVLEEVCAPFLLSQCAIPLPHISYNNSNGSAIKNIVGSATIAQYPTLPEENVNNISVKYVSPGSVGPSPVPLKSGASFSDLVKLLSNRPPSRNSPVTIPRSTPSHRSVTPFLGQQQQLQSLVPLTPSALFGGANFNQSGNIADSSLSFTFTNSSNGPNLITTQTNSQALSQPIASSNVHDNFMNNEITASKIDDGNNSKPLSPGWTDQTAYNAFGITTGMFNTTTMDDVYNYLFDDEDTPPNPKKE

Columns and labels:
[1] = biological target: T1, N-Ras fused to the GAL4 DNA binding domain (mammalian) (UniProt P04386+P01111); assay: yeast two-hybrid
[2] = biological target: T1, N-Ras fused to the GAL4 DNA binding domain (mammalian); assay: yeast two-hybrid, growth on His-selective media
[3] = biological target: T1, N-Ras fused to the GAL4 DNA binding domain (mammalian); assay: yeast two-hybrid (GAL4 AD-SUR-8 with GAL4 DBD-Ras)
[4] = biological target: wild type LET-60 Ras fused to the GAL4 DNA binding domain (C. elegans) (UniProt P04386+P22981); assay: yeast two-hybrid (GAL4 AD-SUR-8 with GAL4 DBD-Ras)

binding [1]: binds
binding [2]: binds
binding [3]: binds
binding [4]: binds
B1: Human SUR-8 fused to the GAL4 activation domain (protein, not shown: large carriers)
chain: MSSSLGKEKDSKEKDPKVPSAKEREKEAKASGGFGKESKEKEPKTKGKDAKDGKKDSSAAQPGVAFSVDNTIKRPNPAPGTRKKSSNAEVIKELNKCREENSMRLDLSKRSIHILPSSIKELTQLTELYLYSNKLQSLPAEVGCLVNLMTLALSENSLTSLPDSLDNLKKLRMLDLRHNKLREIPSVVYRLDSLTTLYLRFNRITTVEKDIKNLSKLSMLSIRENKIKQLPAEIGELCNLITLDVAHNQLEHLPKEIGNCTQITNLDLQHNELLDLPDTIGNLSSLSRLGLRYNRLSAIPRSLAKCSALEELNLENNNISTLPESLLSSLVKLNSLTLARNCFQLYPVGGPSQFSTIYSLNMEHNRINKIPFGIFSRAKVLSKLNMKDNQLTSLPLDFGTWTSMVELNLATNQLTKIPEDVSGLVSLEVLILSNNLLKKLPHGLGNLRKLRELDLEENKLESLPNEIAYLKDLQKLVLTNNQLTTLPRGIGHLTNLTHLGLGENLLTHLPEEIGTLENLEELYLNDNPNLHSLPFELALCSKLSIMSIENCPLSHLPPQIVAGGPSFIIQFLKMQGPYRAMV
